Results: publication doi:10.1101/2019.12.19.882779
No constants are given. Whether binding was seen depends on the method and setting. Binding seen in cells or lysates may run through a third protein. Some entries that bind do so weakly or less than the wild type. Where a sequence is shown, tags or fusion partners need not be part of it.

Chains of the proteins cited; added tags and fusions are not shown.
UniProt P30052: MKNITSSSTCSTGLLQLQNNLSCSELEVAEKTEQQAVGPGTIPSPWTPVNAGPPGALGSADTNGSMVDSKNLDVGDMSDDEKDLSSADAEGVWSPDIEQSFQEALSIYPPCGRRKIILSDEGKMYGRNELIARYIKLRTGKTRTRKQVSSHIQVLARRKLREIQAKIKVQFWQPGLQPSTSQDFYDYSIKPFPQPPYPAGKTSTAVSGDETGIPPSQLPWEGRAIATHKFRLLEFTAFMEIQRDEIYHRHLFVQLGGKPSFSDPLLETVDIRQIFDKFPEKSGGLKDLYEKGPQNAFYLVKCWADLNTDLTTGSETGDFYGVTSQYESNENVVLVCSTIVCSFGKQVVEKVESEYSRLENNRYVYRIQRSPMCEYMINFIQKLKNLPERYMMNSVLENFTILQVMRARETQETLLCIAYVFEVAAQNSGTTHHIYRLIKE
UniProt P42003: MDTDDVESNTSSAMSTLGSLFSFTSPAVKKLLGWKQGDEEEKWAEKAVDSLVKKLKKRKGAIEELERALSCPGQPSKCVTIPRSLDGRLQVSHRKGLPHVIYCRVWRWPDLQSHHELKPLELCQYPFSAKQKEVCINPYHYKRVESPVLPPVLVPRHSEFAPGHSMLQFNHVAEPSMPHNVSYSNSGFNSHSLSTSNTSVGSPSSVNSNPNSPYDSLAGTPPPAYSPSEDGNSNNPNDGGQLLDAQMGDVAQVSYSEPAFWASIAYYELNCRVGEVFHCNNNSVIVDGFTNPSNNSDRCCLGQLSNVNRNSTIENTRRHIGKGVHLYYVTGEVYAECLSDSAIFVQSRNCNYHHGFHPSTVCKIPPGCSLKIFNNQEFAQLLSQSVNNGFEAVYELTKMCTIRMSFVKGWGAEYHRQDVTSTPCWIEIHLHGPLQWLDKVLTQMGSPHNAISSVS

T1: Flag-Firefly luciferase-Yki2 (Yorkie isoform with two WW domains, includes exon 3) (Drosophila) (UniProt Q45VV3)
T1 sequence: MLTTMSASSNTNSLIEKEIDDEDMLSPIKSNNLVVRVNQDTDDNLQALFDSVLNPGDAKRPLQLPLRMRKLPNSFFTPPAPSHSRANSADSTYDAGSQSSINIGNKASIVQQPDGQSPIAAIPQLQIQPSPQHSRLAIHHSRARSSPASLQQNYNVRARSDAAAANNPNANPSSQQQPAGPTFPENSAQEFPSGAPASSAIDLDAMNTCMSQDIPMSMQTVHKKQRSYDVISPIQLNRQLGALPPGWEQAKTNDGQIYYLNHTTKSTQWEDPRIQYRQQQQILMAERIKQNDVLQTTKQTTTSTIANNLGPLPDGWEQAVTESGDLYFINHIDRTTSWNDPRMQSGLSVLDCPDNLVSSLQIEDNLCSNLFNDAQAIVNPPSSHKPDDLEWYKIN

B1: Hippo fused to Renilla luciferase (protein, UniProt Q8T0S6 1-669)
chain: MSEPEVTSVVDMKSPNISSSCSFFKLKKLSEESLLQPPEKVFDIMYKLGEGSYGSVYKAVHKESSSIVAIKLVPVESDLHEIIKEISIMQQCDSPYVVRYYGSYFKQYDLWICMEYCGAGSVSDIMRLRKKTLTEDEIATILSDTLQGLVYLHLRRKIHRDIKAANILLNTEGYAKLADFGVAGQLTDTMAKRNTVIGTPFWMAPEVIEEIGYDCVADIWSLGITALEMAEGKPPYGEIHPMRAIFMIPQKPPPSFREPDRWSTEFIDFVSKCLVKEPDDRATATELLEHEFIRNAKHRSILKPMLEETCAIREQQRANRSFGGVLAASQAKSLATQENGMQQHITDNAFMEDPGTLVPEKFGEYQQSSASDATMIAHAEQGVDEGTLGPGGLRNLSKAAAPAAASSAASPLDMPAVDSGTMVELESNLGTMVINSDSDDSTTAKNNDDQKPRNRYRPQFLEHFDRKNAGDGRGDEKPIATEYSPAAAEQQQQQQQQQQQQQQDEQHLASGANDLNNWEHNMEMQFQQISAINQYGLQQHQQQQQVLMAYPLMNEQLIALNNQPNLLLSNAAPMGQQGIPAAAPAQPPPAYQNQHMHTQSHAYVEGEFEFLKFLTFDDLNQRLCNIDHEMELEIEQLNKKYNAKRQPIVDAMNAKRKRQQNINNNLIKI
B2: GAF fused to Renilla luciferase (protein, UniProt Q08605 1-582)
chain: MSLPMNSLYSLTWGDYGTSLVSAIQLLRCHGDLVDCTLAAGGRSFPAHKIVLCAASPFLLDLLKNTPCKHPVVMLAGVNANDLEALLEFVYRGEVSVDHAQLPSLLQAAQCLNIQGLAPQTVTKDDYTTHSIQLQHMIPQHHDQDQLIATIATAPQQTVHAQVVEDIHHQGQILQATTQTNAAGQQQTIVTTDAAKHDQAVIQAFLPARKRKPRVKKMSPTAPKISKVEGMDTIMGTPTSSHGSGSVQQVLGENGAEGQLLSSTPIIKSEGQKVETIVTMDPNNMIPVTSANAATGEITPAQGATGSSGGNTSGVLSTPKAKRAKHPPGTEKPRSRSQSEQPATCPICYAVIRQSRNLRRHLELRHFAKPGVKKEKKTTSGKKSSSGSSGSGSGALSSSGSVPQVQTVQSLHTLQGVQVKKDPDAQQQQQQQQQQQQQQQQQAMTVSGATGGQVQQQVQQVQQQVQQQQQQQQQQQQQLQHHQIIDSSGNITTATTSAQAAAAAQQQAAGQQQQLVAQSDGSESGAPLSIAQVQTLQGHQIIGNLNQVNITDFQQQQPQQQQQQQQQQQQQQQQQQQTQQTL
B3: Hth fused to Renilla luciferase (protein, UniProt O46339 1-487)
chain: MAQPRYDDGLHGYGMDSGAAAAAMYDPHAGHRPPGLQGLPSHHSPHMTHAAAAAATVGMHGYHSGAGGHGTPSHVSPVGNHLMGAIPEVHKRDKDAIYEHPLFPLLALIFEKCELATCTPREPGVQGGDVCSSESFNEDIAMFSKQIRSQKPYYTADPEVDSLMVQAIQVLRFHLLELEKVHELCDNFCHRYISCLKGKMPIDLVIDERDTTKPPELGSANGEGRSNADSTSHTDGASTPDVRPPSSSLSYGGAMNDDARSPGAGSTPGPLSQQPPALDTSDPDGKFLSSLNPSELTYDGRWCRREWSSPADARNADASRRLYSSVFLGSPDNFGTSASGDASNASIGSGEGTGEEDDDASGKKNQKKRGIFPKVATNILRAWLFQHLTHPYPSEDQKKQLAQDTGLTILQVNNWFINARRRIVQPMIDQSNRAVYTPHPGPSGYGHDAMGYMMDSQAHMMHRPPGDPGFHQGYPHYPPAEYYGQHL
B4: Warts fused to Renilla luciferase (protein, UniProt Q9VA38 1-1105)
chain: MHPAGEKRGGRPNDKYTAEALESIKQDLTRFEVQNNHRNNQNYTPLRYTATNGRNDALTPDYHHAKQPMEPPPSASPAPDVVIPPPPAIVGQPGAGSISVSGVGVGVVGVANGRVPKMMTALMPNKLIRKPSIERDTASSHYLRCSPALDSGAGSSRSDSPHSHHTHQPSSRTVGNPGGNGGFSPSPSGFSEVAPPAPPPRNPTACSAATPPPPVPPTSQAYVKRRSPALNNRPPAIAPPTQRGNSPVITQNGLKNPQQQLTQQLKSLNLYPGGGSGAVVEPPPPYLIQGGAGGAAPPPPPPSYTASMQSRQSPTQSQQSDYRKSPSSGIYSATSAGSPSPITVSLPPAPLAKPQPRVYQARSQQPIIMQSVKSTQVQKPVLQTAVAPQSPSSASASNSPVHVLAAPPSYPQKSAAVVQQQQQAAAAAHQQQHQHQQSKPPTPTTPPLVGLNSKPNCLEPPSYAKSMQAKAATVVQQQQQQQQQQQQVQQQQVQQQQQQQQQQLQALRVLQAQAQRERDQRERDQRERERDQQKLANGNPGRQMLPPPPYQSNNNNNSEIKPPSCNNNNIQISNSNLATTPPIPPAKYNNNSSNTGANSSGGSNGSTGTTASSSTSCKKIKHASPIPERKKISKEKEEERKEFRIRQYSPQAFKFFMEQHIENVIKSYRQRTYRKNQLEKEMHKVGLPDQTQIEMRKMLNQKESNYIRLKRAKMDKSMFVKLKPIGVGAFGEVTLVSKIDTSNHLYAMKTLRKADVLKRNQVAHVKAERDILAEADNNWVVKLYYSFQDKDNLYFVMDYIPGGDLMSLLIKLGIFEEELARFYIAEVTCAVDSVHKMGFIHRDIKPDNILIDRDGHIKLTDFGLCTGFRWTHNSKYYQENGNHSRQDSMEPWEEYSENGPKPTVLERRRMRDHQRVLAHSLVGTPNYIAPEVLERSGYTQLCDYWSVGVILYEMLVGQPPFLANSPLETQQKVINWEKTLHIPPQAELSREATDLIRRLCASADKRLGKSVDEVKSHDFFKGIDFADMRKQKAPYIPEIKHPTDTSNFDPVDPEKLRSNDSTMSSGDDVDQNDRTFHGFFEFTFRRFFDDKQPPDMTDDQAPVYV
B5: Ex fused to Renilla luciferase (protein, UniProt Q07436 1-1427)
chain: MRAFCTVSAPLEVCASSAEQLSPGSRFLALRLLGQQQPKTLYFLVDAKSRVREVYTQTCLHFATQGMLDTELFGLAVLIDGEYMFADPESKLSKYGPKSWRSSHTHGLDANGRPLLELHFRVQFYIESPFMLKDETSRHNYYLQLRHNILQRDLPREQAEQALVFLAGLALQADLGDAPPGTSNSKDDSGEETSASPSNGGRGLSATTTLPKISKRANERMLRLSTYVASTSKRETIPLPPSLPPNGADYYRIEDYLPSGLHTPWARSAMRACHREHLGMATAEAELLYIQQACSLHETINAHTYRMRLAKSEQGSGSAWFVVYAKGIKILGGESTNSSSNPETTTFLWPNITKLSFERKKFEIRSGESRITLYAASDEKNKLLLTLCKDTHQWSMKLAARLKEVSKREEEEAAESQRLHASYACSRSLLLPYKSKNEQRISVISSTSSNTTSGIVSDRVHSEDELEIMINTPPAPLAAPSTESLALAHLLDRPSVSRQTSSVGQMSLKDLEEQLAALSVRPQDASSNGATIVTNSSVQRNSMGTTANDSSTATDSPSSQHNIGSQCSSTCSTVVVTSPVNGAGASSSGAPIPVHSTSSSLELGFSHTAQNSALSETSPDDFLSTSAREETESVSGASGVYTLAHGAPPTETSGVYTMHSSELTGQSSEIAESEKSSHYGMFQPQKLEETHVQHSDSVDGKKKEDFRPRSDSNVSTGSSFRGDGSDPTDNKHSLLSAEELTNLIVGRGTYPSRKTVSSSLHSDCDYVTLPLGDQGEEEVDQPPAPPPPYSARHEKTGLCGPPIAKPIPKPIAVVAPKPDSPPCSPPVPPAPIPAPPPAIRRRDPPPYSISSKPRPTSLISVSSSAHPAPSAAGSMSSLKSEEVTARFITTRPQISILKAHTSLIPDGAKPSYAAPHHCSSVASSNGSVCSHQLSQQSLHNSNYAGGSQASLHHHHVPSHHRHSGSAAIGIVPYGLHKSTASLHHQQSCVLLPVIKPRQFLAPPPPSLPRQPPPPPPPNHPHLASHLYEREMARKQLELYQQQLYSDVDYVIYPIQDPAVSQQEYLDAKQGSLLAAMAQAAPPPPHHPYLAMQVSPAIYRSTPYLPLTLSTHSRYASTQNLSDTYVQLPGPGYSPLYSPSMASLCSSYEPPPPPPLHPAALAAAAAAGAGSSSSSMFARSRSDDNILNSLDLLPKGKRLPPPPPPPYVNRRLKKPPMPAPSEKPPPIPSKPIPSRMSPIPPRKPPTLNPHHANSPLTKTSSGAQWAGERPRPDLGLGLGLNRGNNSILAQLQASMVAQSHAQAQAQALDIALLREKSKHLDLPLISALCNDRSLLKQTKVVINPKTGQEMPTSSAQPSGATTNGVANSSAGAGTLSKARKGSTVSHRHPQDKLPPLPVQQLAEANNYVIDPAVMMKQQQQQQQHNKTS

Target: T1, Flag-Firefly luciferase-Yki2 (Yorkie isoform with two WW domains, includes exon 3) (Drosophila)
Assay: co-IP

binding	Molecule
binds	Scalloped fused to Renilla luciferase (from UniProt P30052 1-440)
binds	MAD fused to Renilla luciferase (from UniProt P42003 1-455)
binds	B1
binds	B2
binds	B3
binds	B4
binds	B5
